Data on one substance can be found in publication PMC3808333.

For the assay, the target named is T1, AtTPX2-GFP (Arabidopsis thaliana targeting protein for Xklp2 fused to GFP) (Arabidopsis thaliana) (UniProt F4I2H7).
T1 sequence: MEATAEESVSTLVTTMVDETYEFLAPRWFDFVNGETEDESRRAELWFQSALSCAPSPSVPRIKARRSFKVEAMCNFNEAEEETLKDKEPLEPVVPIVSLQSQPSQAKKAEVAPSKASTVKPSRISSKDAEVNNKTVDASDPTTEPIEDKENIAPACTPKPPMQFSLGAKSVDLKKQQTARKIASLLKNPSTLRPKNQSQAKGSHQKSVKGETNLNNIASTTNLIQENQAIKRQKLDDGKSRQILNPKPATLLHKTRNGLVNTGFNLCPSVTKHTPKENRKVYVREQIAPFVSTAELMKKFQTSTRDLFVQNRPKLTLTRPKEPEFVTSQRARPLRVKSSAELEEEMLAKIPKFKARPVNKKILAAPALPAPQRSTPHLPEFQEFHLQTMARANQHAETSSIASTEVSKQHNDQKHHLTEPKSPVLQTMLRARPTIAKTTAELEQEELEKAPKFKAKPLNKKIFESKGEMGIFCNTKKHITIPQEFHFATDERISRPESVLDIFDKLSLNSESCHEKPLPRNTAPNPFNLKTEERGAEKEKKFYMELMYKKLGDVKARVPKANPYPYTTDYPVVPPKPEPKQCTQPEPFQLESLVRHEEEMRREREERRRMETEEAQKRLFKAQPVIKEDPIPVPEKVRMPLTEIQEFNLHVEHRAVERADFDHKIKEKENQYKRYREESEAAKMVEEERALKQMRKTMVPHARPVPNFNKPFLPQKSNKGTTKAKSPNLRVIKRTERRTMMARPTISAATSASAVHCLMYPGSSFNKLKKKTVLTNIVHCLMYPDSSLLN
Nature of the assay: co-IP; GFP-Trap A beads with extract of A. thaliana cell culture expressing AtTPX2-GFP (10,000 g supernatant, 3-4 mg/ml protein, used directly or solubilized by 1% NP-40), 1.5 h at 4 °C; elution with glycine pH 2.5; immunoblot; GFP immunoprecipitate from wild-type Ler culture as negative control.

No constants are given. Whether binding was seen depends on the method and setting. Binding seen in cells or lysates may run through a third protein. Binding calls can cover weak binding; strength is not graded here. Tags and fused reporters may be left off the sequences shown.

Regarding importin, the binding entry was “binds”.
